{"source": "patent US20060240095A1", "about": "“Pharmaceutical composition comprising a combination of metformin and a statin” (priority 2003, published 2006)", "origin": "cited, not measured here", "conditions": "oral administration with food; cited from earlier work"}
{"smiles": "CC(C)c1c(C(=O)Nc2ccccc2)c(-c2ccccc2)c(-c2ccc(F)cc2)n1CC[C@@H](O)C[C@@H](O)CC(=O)O", "note": "[Atorvastatin]", "values": [{"measurement": "effect of food on absorption", "value": "decreases the rate and extent of drug absorption"}]}
